Measured values published in patent publication US12467038B2, “Methods of culturing human pluripotent cells” (Hadasit Medical Research Services and Development Ltd., priority 2019, dated 2025).

Tested on: hPSCs
Experiment: Reduced representation bisulphite sequencing (RRBS), genome-wide CpG methylation
Type: cell-based, human

LN111: mouse LN111, 3-D Culture Matrix Laminin I (CULTREX, TREVIGEN), coating of culture dishes
Genome-wide CpG methylation level (HES-1 cultured on LN111): 57
Genome-wide CpG methylation level (HES-2 cultured on LN111): 61
